Laboratory results: PubChem BioAssay AID330 (DTP/NCI, 2004)
The list is a part of this screen's results and no random one: it is rich in T/C values a quarter to a half above the control, in often repeated tests (any T/C) and in doses without a T/C. Further doses and runs are listed elsewhere. T/C gives the treated animals as a percentage of the vehicle group. Some entries give survivors of the animals treated and no T/C: the source files T/C as zero there, which appears to mark a toxic dose or a test without result, not a measured value. Some survivor counts are full or nearly so, which does not show that the dose was tolerated: the source hardly ever lists a survival T/C far under the control, and the zero likely stands for such cases as well. Survivors were counted at the toxicity check, usually on the fifth day, unless a day is given; later deaths do not show. Schedule codes are those of the source, taken here to give the interval after Q, in days (D) or hours (H), and the number of doses after X. Some doses were run more than once; the values are given in rising order. For survival time, this PubChem deposit counts one and a half times the control or more as active, and values a quarter to a half above the control carry no call in these data; other NCI protocols may use other cut-offs. Some schedule codes hold Z or #, which are not explained here. Some T/C values carry the count of animals alive at the toxicity check (mostly the fifth day); without a count, all were alive then.

Tested on: P388 leukemia ip, CD2F1 mice, survival T/C
Assay: NCI In Vivo Anticancer Drug Screen. Data for tumor model P388 Leukemia (intraperitoneal) in CD2F1 (CDF1) mice
Conditions: T/C endpoint: median survival time, higher T/C = longer survival
[1] = dose: 100.0 mg/kg/injection, schedule: Q01DX009 (ip), vehicle: saline with Tween-80
[2] = dose: 200.0 mg/kg/injection, schedule: Q01DX009 (ip), vehicle: saline with Tween-80
[3] = dose: 60.0 mg/kg/injection, schedule: Q01DX005 (ip), vehicle: saline with Tween-80
[4] = dose: 120.0 mg/kg/injection, schedule: Q01DX005 (ip), vehicle: saline with Tween-80
[5] = dose: 240.0 mg/kg/injection, schedule: Q01DX005 (ip), vehicle: saline with Tween-80
[6] = dose: 400.0 mg/kg/injection, schedule: Q01DX009 (ip), vehicle: saline with Tween-80
[7] = dose: 50.0 mg/kg/injection, schedule: Q01DX005 (ip), vehicle: Klucel (hydroxypropylcellulose) (HPC)
[8] = dose: 400.0 mg/kg/injection, schedule: Q04DX002 (ip), vehicle: saline with Tween-80
[9] = dose: 50.0 mg/kg/injection, schedule: Q01DX009 (ip), vehicle: saline with Tween-80
[10] = dose: 25.0 mg/kg/injection, schedule: Q01DX009 (ip), vehicle: saline with Tween-80
[11] = dose: 50.0 mg/kg/injection, schedule: Q01DX005 (ip), vehicle: saline with Tween-80

## Cc1cccc(NC(=O)CCc2ccc(N3C(N)=NC(N)=NC3(C)C)cc2)c1
[1]
  T/C: 127 % of control
[2]
  T/C: 127 and 136 % of control
dose: 300.0 mg/kg/injection, schedule: Q01DX009 (ip), vehicle: saline with Tween-80
  survivor count: 5 of 6

## COc1ccc2nc3cc(Cl)ccc3c(NCCCCCCNc3c4ccc(Cl)cc4nc4ccc(OC)nc34)c2n1
dose: 200.0 mg/kg/injection, schedule: Q01DX009 (ip), vehicle: Klucel (hydroxypropylcellulose) (HPC)
  survivor count: 4 of 6

## C1CCC2[N-]CCCC2C1.C1CCC2[N-]CCCC2C1.O=[N+]([O-])O.O=[N+]([O-])O.[Cu+2] (stereo not drawn)
dose: 30.0 mg/kg/injection, schedule: Q01DX005 (ip), vehicle: saline with Tween-80
  survivor count: 3 of 6
[3]
  survivor count: 0 of 6
[4]
  survivor count: 0 of 6
[5]
  survivor count: 0 of 6

## O=P(Oc1ccc(OP(=O)(N2CC2)N2CC2)cc1)(N1CC1)N1CC1
dose: 100.0 mg/kg/injection, schedule: Q04DX003 (ip), vehicle: saline with Tween-80
  T/C: 129 % of control
[6]
  survivor count: 6 of 6
dose: 400.0 mg/kg/injection, schedule: Q04DX003 (ip), vehicle: saline with Tween-80
  survivor count: 6 of 6
dose: 600.0 mg/kg/injection, schedule: Q04DX003 (ip), vehicle: saline with Tween-80
  survivor count: 3 of 6

## COc1ccc2ncc(CO)c(CO)c2c1
[7]
  survivor count: 5 of 5
dose: 100.0 mg/kg/injection, schedule: Q01DX005 (ip), vehicle: Klucel (hydroxypropylcellulose) (HPC)
  survivor count: 5 of 5

## COc1ccc(/C=N\N=C(/[O-])c2ccc(Cl)cc2)cc1.COc1ccc(/C=N\N=C(/[O-])c2ccc(Cl)cc2)cc1.[Ni+2].[OH3+].[OH3+]
dose: 200.0 mg/kg/injection, schedule: Q04DX002 (ip), vehicle: saline with Tween-80
  survivor count: 3 of 6
[8]
  survivor count: 6 of 6

## O/C(=C/c1ncnc2ccccc12)c1cccc(Cl)c1
[5]
  survivor count: 6 of 6

## CCOC1OCN(C(C)C)CC1(C)C (stereo not drawn)
[9]
  T/C: 130 % of control
[1]
  T/C: 125 % of control
[2]
  T/C: 125 % of control [4 of 6 alive]

## O=C1CC(SC(=S)C2CCCC2=O)C(=O)O1 (stereo not drawn)
[9]
  survivor count: 3 of 6
[1]
  survivor count: 2 of 6 and 4 of 6

## CC[C@@H](C)[C@@H]1NC(=O)C(NC(=O)C(CC(C)C)N(C)C(=O)C2CCCN2C(=O)C(C)O)C(C)OC(=O)C(Cc2ccc(OC)cc2)N(C)C(=O)C2CCCN2C(=O)C(CC(C)C)NC(=O)C(C)C(=O)C(C(C)C)OC(=O)C[C@H]1O (stereo partly drawn)
dose: 0.07 mg/kg/injection, schedule: Q01DX009 (ip), vehicle: none
  T/C: 135 % of control [3 of 4 alive]
dose: 0.15 mg/kg/injection, schedule: Q01DX009 (ip), vehicle: none
  survivor count: 1 of 4
dose: 0.3 mg/kg/injection, schedule: Q01DX009 (ip), vehicle: none
  survivor count: 0 of 4
dose: 25.0 micrograms/kg/injection, schedule: Q01DX009 (ip), vehicle: distilled water + Tween-80 + alcohol
  T/C: 140 % of control
dose: 40.0 micrograms/kg/injection, schedule: Q01DX009 (ip), vehicle: distilled water + alcohol
  T/C: 136 % of control
dose: 50.0 micrograms/kg/injection, schedule: Q01DX009 (ip), vehicle: distilled water + Tween-80 + alcohol
  T/C: 142 % of control
dose: 100.0 micrograms/kg/injection, schedule: Q01DX009 (ip), vehicle: distilled water + Tween-80 + alcohol
  T/C: 145 % of control
dose: 160.0 micrograms/kg/injection, schedule: Q01DX009 (ip), vehicle: distilled water + alcohol
  T/C: 146 % of control
dose: 200.0 micrograms/kg/injection, schedule: Q01DX009 (ip), vehicle: distilled water + Tween-80 + alcohol
  survivor count: 6 of 6
dose: 400.0 micrograms/kg/injection, schedule: Q01DX009 (ip), vehicle: distilled water + Tween-80 + alcohol
  survivor count: 0 of 6
dose: 800.0 micrograms/kg/injection, schedule: Q01DX009 (ip), vehicle: distilled water + Tween-80 + alcohol
  survivor count: 0 of 6

## [Cl][Hg][CH]1CCC2OC1CC[CH]2[Hg][Cl] (stereo not drawn)
dose: 6.25 mg/kg/injection, schedule: Q01DX009 (ip), vehicle: saline with Tween-80
  T/C: 127 % of control
dose: 12.5 mg/kg/injection, schedule: Q01DX009 (ip), vehicle: saline with Tween-80
  survivor count: 1 of 6
[10]
  survivor count: 0 of 6
[1]
  survivor count: 0 of 6
[2]
  survivor count: 0 of 6
[6]
  survivor count: 0 of 6

## COc1ccc(C2=C[P+](c3ccccc3)(c3ccccc3)C=C(c3ccccc3)O2)cc1
dose: 6.0 mg/kg/injection, schedule: Q01DX005 (ip), vehicle: saline with Tween-80
  survivor count: 1 of 5
dose: 12.5 mg/kg/injection, schedule: Q01DX005 (ip), vehicle: saline with Tween-80
  survivor count: 0 of 5 and 4 of 5
dose: 25.0 mg/kg/injection, schedule: Q01DX005 (ip), vehicle: saline with Tween-80
  survivor count: 0 of 5
[11]
  survivor count: 0 of 5

## COC(=O)/C=C(\C(=O)OC)C1=C(N2CCCC2)CC(C)(C)CC1=O
[7]
  survivor count: 6 of 6

## CCN(CC)C(=S)n1nc(C)c(N=Nc2cccc(Cl)c2Cl)c1C
[11]
  survivor count: 6 of 6

## Brc1cccc(C(Nc2nncs2)Nc2nncs2)c1
[8]
  T/C: 135 % of control

## O=C(O)C[N-]c1ccccc1.O=C(O)C[N-]c1ccccc1.[Ni+2]
[10]
  survivor count: 6 of 6

## CC(C)c1cccc(C(C)C)c1NC(=O)OCCN(C)C
[5]
  survivor count: 0 of 6

## COc1cc(CO)c(I)c(OC)c1OC
dose: 400.0 mg/kg/injection, schedule: Q01DX001 (ip), vehicle: Klucel (hydroxypropylcellulose) (HPC)
  survivor count: 3 of 6

## O=c1c2ccccc2oc2cccc(NCCCN3CCN(CCCNc4cccc5oc6ccccc6c(=O)c45)CC3)c12
dose: 14.0 mg/kg/injection, schedule: Q01DX005 (ip), vehicle: saline with Tween-80
  survivor count: 6 of 6
dose: 28.0 mg/kg/injection, schedule: Q01DX005 (ip), vehicle: saline with Tween-80
  survivor count: 6 of 6
dose: 56.0 mg/kg/injection, schedule: Q01DX005 (ip), vehicle: saline with Tween-80
  survivor count: 6 of 6

## CC(=O)OC1CCC2(C)C(=CCC3C2CCC2(C)C3CC3N(c4ccccc4Cl)C32C(C)=O)C1 (stereo not drawn)
dose: 200.0 mg/kg/injection, schedule: Q01DX001 (ip), vehicle: saline with Tween-80
  survivor count: 6 of 6

## c1ccc(C[N+]23CCC(CC2)C3c2ccccc2)cc1 (stereo not drawn)
dose: 30.0 mg/kg/injection, schedule: Q01DX005 (ip), vehicle: saline
  survivor count: 0 of 6
dose: 60.0 mg/kg/injection, schedule: Q01DX005 (ip), vehicle: saline
  survivor count: 0 of 6
dose: 120.0 mg/kg/injection, schedule: Q01DX005 (ip), vehicle: saline
  survivor count: 0 of 6
dose: 240.0 mg/kg/injection, schedule: Q01DX005 (ip), vehicle: saline
  survivor count: 0 of 6

## C(=N\N=C1c2ccccc2-c2ccccc21)/c1ccc2ccc3cccc4ccc1c2c34
[3]
  survivor count: 6 of 6
[4]
  survivor count: 6 of 6

## Cc1ccc(N=C(N=C(NC(=O)c2ccccc2)c2ccccc2)c2ccccc2)cc1
[1]
  survivor count: 6 of 6
[2]
  survivor count: 6 of 6

## COc1cccc2c(NCCCCCCNc3c4ccccc4nc4c(OC)cccc34)c3ccccc3nc12
dose: 1.25 mg/kg/injection, schedule: Q## X009 (ip), vehicle: lactic acid
  T/C: 144 % of control
dose: 2.5 mg/kg/injection, schedule: Q01DX009 (ip), vehicle: other
  T/C: 144 % of control
dose: 3.75 mg/kg/injection, schedule: Q01DX009 (ip), vehicle: other
  T/C: 144 % of control
dose: 5.0 mg/kg/injection, schedule: Q01DX009 (ip), vehicle: other
  T/C: 144 % of control
dose: 7.5 mg/kg/injection, schedule: Q01DX009 (ip), vehicle: other
  T/C: 140 % of control
dose: 10.0 mg/kg/injection, schedule: Q01DX009 (ip), vehicle: other
  T/C: 137 % of control
dose: 15.0 mg/kg/injection, schedule: Q01DX009 (ip), vehicle: other
  survivor count: 3 of 6
dose: 20.0 mg/kg/injection, schedule: Q01DX009 (ip), vehicle: other
  survivor count: 1 of 6

## S=C1N=C2c3ccccc3C2C(=S)S1 (stereo not drawn)
[10]
  survivor count: 6 of 6
[9]
  survivor count: 6 of 6

## CCNCc1c(C)[nH]c2ccccc2c1=O
[9]
  survivor count: 6 of 6
[2]
  survivor count: 0 of 6
